Construct, isoform or probe ends are uncertain for at least one entry. Where a protein sequence is shown, tags need not be part of it.
How the values were obtained:
Test in all cases: activity assay
[1] = test system: T1, MG153-12; settings: primer extension gel; higher error rate than MMLV; protein translated in vitro; protein details: N-terminal Strep; label: 5'-FAM primer; DNA:RNA hybrid
T1 sequence (limits assumed): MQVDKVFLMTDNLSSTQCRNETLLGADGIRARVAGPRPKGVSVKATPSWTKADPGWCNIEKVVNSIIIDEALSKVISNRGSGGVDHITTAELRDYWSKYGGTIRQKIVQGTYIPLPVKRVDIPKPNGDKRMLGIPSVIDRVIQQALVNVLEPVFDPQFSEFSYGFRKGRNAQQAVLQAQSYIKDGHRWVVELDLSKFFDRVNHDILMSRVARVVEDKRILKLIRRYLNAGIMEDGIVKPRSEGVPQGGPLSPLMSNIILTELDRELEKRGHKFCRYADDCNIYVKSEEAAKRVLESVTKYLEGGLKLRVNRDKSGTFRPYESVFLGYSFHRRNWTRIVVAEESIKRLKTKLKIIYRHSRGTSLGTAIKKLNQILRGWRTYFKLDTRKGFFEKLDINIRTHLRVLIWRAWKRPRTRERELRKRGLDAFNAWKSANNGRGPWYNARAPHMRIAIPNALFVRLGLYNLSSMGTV

[2] = test system: T2, MG153-3; settings: primer extension gel; 3 mM MgCl2, 37 C; protein translated in vitro; protein details: N-terminal Strep; label: 5'-FAM primer; DNA:RNA hybrid
T2 sequence (limits assumed): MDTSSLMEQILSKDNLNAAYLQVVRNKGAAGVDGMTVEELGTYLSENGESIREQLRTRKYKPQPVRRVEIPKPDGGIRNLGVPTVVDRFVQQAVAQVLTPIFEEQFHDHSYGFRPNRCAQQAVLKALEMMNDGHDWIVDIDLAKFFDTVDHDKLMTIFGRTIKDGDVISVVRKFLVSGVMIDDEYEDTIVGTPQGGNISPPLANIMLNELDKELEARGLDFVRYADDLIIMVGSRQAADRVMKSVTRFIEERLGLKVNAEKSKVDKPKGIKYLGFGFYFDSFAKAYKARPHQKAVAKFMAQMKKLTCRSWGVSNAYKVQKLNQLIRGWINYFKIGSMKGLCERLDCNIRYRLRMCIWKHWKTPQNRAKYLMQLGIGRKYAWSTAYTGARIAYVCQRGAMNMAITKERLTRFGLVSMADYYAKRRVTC

[3] = test system: T3, MG153-51; settings: primer extension gel; 3 mM MgCl2, 37 C; protein translated in vitro; protein details: N-terminal Strep; label: 5'-FAM primer; DNA:RNA hybrid
T3 sequence (limits assumed): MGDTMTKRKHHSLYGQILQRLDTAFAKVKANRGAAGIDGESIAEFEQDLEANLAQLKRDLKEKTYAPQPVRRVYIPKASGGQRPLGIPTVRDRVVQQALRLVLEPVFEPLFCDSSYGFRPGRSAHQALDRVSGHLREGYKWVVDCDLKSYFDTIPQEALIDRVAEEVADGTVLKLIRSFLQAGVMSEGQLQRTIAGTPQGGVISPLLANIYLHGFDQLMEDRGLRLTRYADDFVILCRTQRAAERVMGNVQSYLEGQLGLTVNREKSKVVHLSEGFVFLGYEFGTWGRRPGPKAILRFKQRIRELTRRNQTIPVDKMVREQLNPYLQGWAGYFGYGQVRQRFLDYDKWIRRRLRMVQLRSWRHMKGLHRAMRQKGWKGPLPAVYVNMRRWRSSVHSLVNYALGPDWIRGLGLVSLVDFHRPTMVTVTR

[4] = test system: T4, MG165-1; settings: primer extension gel; protein translated in vitro; protein details: N-terminal Strep; label: 5'-FAM primer; DNA:RNA hybrid
T4 sequence (limits assumed): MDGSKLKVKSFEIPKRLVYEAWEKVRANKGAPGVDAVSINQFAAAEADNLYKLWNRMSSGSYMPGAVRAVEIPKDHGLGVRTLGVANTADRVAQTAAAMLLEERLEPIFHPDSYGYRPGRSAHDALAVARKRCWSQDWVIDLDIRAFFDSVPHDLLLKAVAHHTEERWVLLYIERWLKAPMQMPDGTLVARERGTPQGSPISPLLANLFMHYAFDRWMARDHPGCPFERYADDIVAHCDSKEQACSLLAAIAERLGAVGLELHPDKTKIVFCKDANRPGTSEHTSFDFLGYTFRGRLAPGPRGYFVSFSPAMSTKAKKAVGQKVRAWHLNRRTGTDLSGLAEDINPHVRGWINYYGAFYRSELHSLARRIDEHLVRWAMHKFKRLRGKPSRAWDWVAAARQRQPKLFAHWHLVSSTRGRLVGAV

[5] = test system: T5, MG165-5; settings: primer extension gel; protein translated in vitro; protein details: N-terminal Strep; label: 5'-FAM primer; DNA:RNA hybrid
T5 sequence (limits assumed): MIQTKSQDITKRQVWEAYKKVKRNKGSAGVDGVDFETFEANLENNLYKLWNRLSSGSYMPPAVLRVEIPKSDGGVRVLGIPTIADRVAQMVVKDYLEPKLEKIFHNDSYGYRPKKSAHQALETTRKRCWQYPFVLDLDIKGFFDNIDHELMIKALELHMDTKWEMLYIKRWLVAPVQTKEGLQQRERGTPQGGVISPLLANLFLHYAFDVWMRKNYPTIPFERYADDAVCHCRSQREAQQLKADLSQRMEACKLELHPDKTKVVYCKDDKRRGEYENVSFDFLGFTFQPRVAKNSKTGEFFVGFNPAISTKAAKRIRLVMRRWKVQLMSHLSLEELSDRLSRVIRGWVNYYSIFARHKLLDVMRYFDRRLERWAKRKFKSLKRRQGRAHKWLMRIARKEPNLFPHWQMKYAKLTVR

[6] = test system: T6, MG167-4; settings: primer extension gel; protein translated in vitro; protein details: N-terminal Strep; label: 5'-FAM primer; DNA:RNA hybrid
T6 sequence (limits assumed): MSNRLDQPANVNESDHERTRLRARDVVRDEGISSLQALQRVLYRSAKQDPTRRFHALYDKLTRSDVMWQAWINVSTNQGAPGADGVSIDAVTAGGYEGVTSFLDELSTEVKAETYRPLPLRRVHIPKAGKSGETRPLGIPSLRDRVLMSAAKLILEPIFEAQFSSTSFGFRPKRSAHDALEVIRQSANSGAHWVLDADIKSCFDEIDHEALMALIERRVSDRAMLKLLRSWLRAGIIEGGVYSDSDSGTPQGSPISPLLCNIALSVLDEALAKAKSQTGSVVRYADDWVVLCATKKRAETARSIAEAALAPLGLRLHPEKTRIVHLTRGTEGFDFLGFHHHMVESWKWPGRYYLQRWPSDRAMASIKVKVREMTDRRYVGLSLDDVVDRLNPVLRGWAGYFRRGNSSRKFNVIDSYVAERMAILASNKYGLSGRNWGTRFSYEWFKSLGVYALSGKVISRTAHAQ

Measured: activity on this sequence

GGCAAACCGCCTCTCCCCGCGCGTTGGCCGATTCATTAATGCAGCTGGCACGACAGGTTTCCCGACTGGAAAGGAGACCCGGGCAGTGAGCGCAACGGGTCTCCAATTTAAGCCAGCCCCGACACCCGCCAACACCCGCTGACGCGCCCTGACGGGCTTGTCTGCTCCCGGCATCCGCTTACAGACAAGCTGTGACCGTCTC / GAGACGGTCACAGCTTGTCTG [202-nt RNA template annealed to DNA primer]
active: all assays above
